Experimental data: PubChem BioAssay AID1508600 (Functional Genomics Laboratory (NCATS/FGL), 2020)
The whole screen tested about 53,000 sequences, of which about 3,700 (7%) were called active.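 The calls were made as follows: active = gene knockdowns whose robust z-score for IL-1 alpha signal is at least 2 or at most -2, so actives lie on both sides; inactive = the rest.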 This is one part of the list.

Test: Components of the Cytosolic LPS Sensing Pathway: Gene Identification via Genome-wide siRNA Screen;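 also: robust z of the log signal after scaling to non-targeting control siRNA wells of the plate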
Conditions: RAW264.7 macrophages, IL-1a HTRF, actives lie on both sides, screened at 100 nM (by protocol), cells primed 5 h with Pam3CSK4 first
Procedure, shortened: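 RAW264.7; siRNA 100 nM final, RNAiMAX, 48h 37 degrees C; Pam3CSK4 5 h; LipidA + TransIT-TKO 24 h; IL-1a HTRF; CellTiter-Glo viability; robust z vs negative-control median.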

Row | Sequence | z-score
1 | GCAGGAUUGCAUAUAUCGGTT against Cspg5 | inactive: -0.672
2 | GCUGGUGCUCUUCACCAUATT against Fbxw17 | inactive: -0.419
3 | CCUCCCAGAUUGCUCUAAUTT against Depp1 | inactive: -1.57
4 | GCCUGAGAUCGUGAACACUTT against Ccdc159 | inactive: -0.0179
5 | GGCGUGAAUGAAUUUGGAATT against Adam22 | inactive: -0.816
6 | GGCAUAGGACUAGAAGCAGTT against Rsrc2 | inactive: -1.54
7 | GGUUUUCUUAGAUACUUUGTT against Fzd6 | inactive: 1.03
8 | GGAGAUGAAAUAAAGUGGATT against Acsm1 | inactive: -0.573
9 | GGAGAAGCUGGCAAAUAUGTT against Mbl1 | inactive: -0.63
10 | CGGACAAAGGACGAGUGUUTT against Fn3krp | active: 3.02
11 | GGUGUCAGAUAAUGAUUGUTT against Susd6 | inactive: 0.576
12 | GGCUAUCCCUGUUGUGUCUTT against Kit | inactive: -1.49
13 | GCAACAUUAGGAUUUAUAGTT against Gask1b | inactive: 0.0376
14 | GGAUGCUUUGAAAUAAAACTT against Sptssb | inactive: -0.744
15 | CCUAAGAGAUAAGAGCACCTT against Ppa2 | inactive: 0.381
16 | GGAGUUCUUCUUCAAUGAGTT against Kcnd3 | inactive: -1.3
17 | GGAAAUGUACAAGACUGAUTT against Anxa2 | active: 2.29
18 | GGAAGUGCUUUGAAGAAGATT against Strip2 | inactive: 1.21
19 | CGAUGUUACUAUAGGAUCUTT against A730036I17Rik | inactive: 0.33
20 | GGCAGCUGGAUCUCUUUGATT against Txndc17 | inactive: -0.572
21 | GGAAAAUGUUUGGUGUAAUTT against Zfp85 | inactive: -0.682
22 | GCAUACCAAUCACAGUCGATT against Dync2li1 | active: -2.55

Row | Sequence | z-score
23 | CCCACAAAACAUGACCGCCTT against Sirt6 | inactive: 1.26
24 | CCUCGACUCAUUCAGCUUGTT against Ogg1 | inactive: 0.965
25 | GGAGCUGACAGACAUAGACTT against Ctnnbl1 | inactive: -0.0159
26 | GAGGCCUUCCUUUUCUAUATT against Foxd2 | inactive: 0.876
27 | CCAUAUCCGUAGGUAUAUCTT against Htr2a | inactive: 0.422
28 | GGCUCUAAAACUGUCAGACTT against Scp2d1 | active: 2.25
29 | AUUAGAAGUAAACACGGGATT against Krtap19-1 | inactive: 0.835
30 | GCAGACAGUAAAUUGGUAATT against Mab21l3 | inactive: 0.915
31 | GGUCAAUUCAAGAUUGAUUTT against Macrod2 | inactive: -0.116
32 | GGUGCGAGAUGCAUACAUCTT against Cct6b | inactive: 1.13
33 | GUGUCUGUUGGAAAGCAGATT against Tmem94 | inactive: -1.4
34 | GGAACGACAAUAAAGCUUATT against Ninj1 | inactive: 0.029
35 | GGAUCCCUUGAAAUACCAATT against Lrpap1 | inactive: 0.0754
36 | GCGACUCAUUAAGGAUGUGTT against Actrt3 | inactive: 0.225
37 | GGUUCCAGAGAAACAAAAGTT against Cox7a2 | inactive: -0.305
38 | CCAGUUUGCACAAGUUUUCTT against Fyco1 | inactive: 1.94
39 | GUGGAAAUGUACUUCUCUGTT against Olfr257 | inactive: 0.435
40 | GCCUACAGGAGUGAGAUAATT against Arhgap33os | inactive: -1.36
41 | GGAUUUCCUUUUUAAAUCCTT against Zfp42 | inactive: 0.939
42 | GGAUUAUCAUGGUUUGAUCTT against Elp4 | inactive: 0.938
43 | GCGUAGCUGUAGUGAACCATT against Erh | inactive: 1.78
44 | GGUGUCAAAUUGGUUCGCUTT against Mkx | inactive: 0.619

Row | Sequence | z-score
45 | GCCAAUAGGUGAUUUUCUCTT against Vil1 | inactive: 0.875
46 | CCUAAGCUUAUCUCAUAUUTT against 4930449I24Rik | inactive: -0.572
47 | CGUAUGGAGUCCAUUACUATT against Frmd4b | inactive: 0.341
48 | CCGUCUACAUAAAUUGCCCTT against Lrfn1 | inactive: 0.298
49 | GGCCAAAAUGUUUGUUUGGTT against E030011O05Rik | inactive: 0.0784
50 | GGCUGGUUUAUUCUGGUAUTT against Stradb | inactive: 1.25
51 | GGUCAGUCGUAUGAAAUCCTT against Tfcp2l1 | inactive: -0.501
52 | GCGAGGGAUAAUUUAUAGATT against Prkci | inactive: 1.19
53 | GAGCAAUAAGCUAGGGUGATT against Olfr1428 | inactive: 0.239
54 | UUAUUGAGGCCGGGCUCAUTT against Kpna7 | inactive: -1.52
55 | GGAUAGAAAAUCUGUGUUUTT against Trim60 | inactive: -0.401
56 | GGGAGUGCGGAUUUCUUGUTT against Col9a2 | inactive: 0.712
57 | GGAAUUGAGCAGGAAGAGGTT against Stx1b | inactive: 0.479
58 | GGAUUUAAAUCACCUGUAATT against Tdpoz1 | inactive: -0.864
59 | GGAUGCAGAAACGCACGGUTT against Ltb4r1 | inactive: 0.199
60 | CCACAAUCAUUAACAAGCUTT against Arl6 | inactive: 0.389
61 | GGUGCUAGACAGAGCUUACTT against Gdf10 | inactive: 1.5
62 | GGAAAGUGUUGUUUAAGAATT against Rint1 | inactive: 0.823
63 | GCAUCAGAGAUAUUAUUUGTT against Ube2a | inactive: -0.363
64 | GCAUCAUCAGCUGGUUCGUTT against Agpat2 | inactive: 0.589
65 | GGAUGAAGACAAUGAUAUUTT against Mecom | inactive: 0.038
66 | GGCAUUGCAUUUGAGGAUCTT against Slc35f5 | inactive: 0.394

In a second layout: entries from further up
Row	Sequence	z-score
37	GGUUCCAGAGAAACAAAAGTT against Cox7a2	inactive: -0.305
38	CCAGUUUGCACAAGUUUUCTT against Fyco1	inactive: 1.94
40	GCCUACAGGAGUGAGAUAATT against Arhgap33os	inactive: -1.36
41	GGAUUUCCUUUUUAAAUCCTT against Zfp42	inactive: 0.939
42	GGAUUAUCAUGGUUUGAUCTT against Elp4	inactive: 0.938
43	GCGUAGCUGUAGUGAACCATT against Erh	inactive: 1.78
44	GGUGUCAAAUUGGUUCGCUTT against Mkx	inactive: 0.619
45	GCCAAUAGGUGAUUUUCUCTT against Vil1	inactive: 0.875
46	CCUAAGCUUAUCUCAUAUUTT against 4930449I24Rik	inactive: -0.572
47	CGUAUGGAGUCCAUUACUATT against Frmd4b	inactive: 0.341
48	CCGUCUACAUAAAUUGCCCTT against Lrfn1	inactive: 0.298
49	GGCCAAAAUGUUUGUUUGGTT against E030011O05Rik	inactive: 0.0784
50	GGCUGGUUUAUUCUGGUAUTT against Stradb	inactive: 1.25
52	GCGAGGGAUAAUUUAUAGATT against Prkci	inactive: 1.19
53	GAGCAAUAAGCUAGGGUGATT against Olfr1428	inactive: 0.239
54	UUAUUGAGGCCGGGCUCAUTT against Kpna7	inactive: -1.52
56	GGGAGUGCGGAUUUCUUGUTT against Col9a2	inactive: 0.712
57	GGAAUUGAGCAGGAAGAGGTT against Stx1b	inactive: 0.479
58	GGAUUUAAAUCACCUGUAATT against Tdpoz1	inactive: -0.864
59	GGAUGCAGAAACGCACGGUTT against Ltb4r1	inactive: 0.199
60	CCACAAUCAUUAACAAGCUTT against Arl6	inactive: 0.389
61	GGUGCUAGACAGAGCUUACTT against Gdf10	inactive: 1.5
62	GGAAAGUGUUGUUUAAGAATT against Rint1	inactive: 0.823
63	GCAUCAGAGAUAUUAUUUGTT against Ube2a	inactive: -0.363
64	GCAUCAUCAGCUGGUUCGUTT against Agpat2	inactive: 0.589
65	GGAUGAAGACAAUGAUAUUTT against Mecom	inactive: 0.038
66	GGCAUUGCAUUUGAGGAUCTT against Slc35f5	inactive: 0.394

Remaining list, next part

Row | Sequence | z-score
67 | GAUGAUCAACAAUAGAUGCTT against Sprr1b | inactive: -0.964
68 | GGACCAAUGUUUUCUUCCUTT against Gngt2 | inactive: 0.773
69 | CGACCUGACUUUUCUUAGGTT against Dynlrb2 | inactive: 0.855
70 | GGCUAUGCUUUUGUCCAGUTT against Raly | inactive: -0.392
71 | GGUCACAGAAACACCAUGUTT against Klhdc4 | inactive: -1.25
72 | GGUCAUUUUCAGAAGGCUGTT against Lynx1 | inactive: -1.22
73 | GCACCUCUACACUUUAGAUTT against Rack1 | inactive: -0.0792
74 | GGUCACCACACGAUCUACATT against Slc4a4 | active: 3.14
75 | GGGUCUCCUCUCUAAUCUATT against Bpifa2 | inactive: -0.229
76 | GGUUUUUAGCAGUUGUAGUTT against Adam3 | inactive: 0.339
77 | GGGUGAAAUCACCUCUCAGTT against Scn2b | inactive: -0.345
78 | GGAUGAAAUUGGAAAGGGCTT against Camkk2 | inactive: -0.0472
79 | GGGAAGUUGUCUGACUAUUTT against Cyc1 | inactive: 0.225
80 | GGCUCAAGCUAUGAAGAGATT against Gstm4 | inactive: -0.195
81 | CCUGAGAACAUUUUAAUCATT against Tas2r116 | inactive: -1.29
82 | GGAACACCACCUUAGAGAUTT against Hnrnpa2b1 | inactive: 1.52
83 | GGAAGCUGAGAUUUAUUUUTT against Trpc4 | inactive: 0.389
84 | ACUUCGUAAAAGAGCACAATT against Platr25 | inactive: 1.02
85 | CCAUCUUACGAUUGCCUUCTT against Olfr362 | inactive: -0.17
86 | GACAGUCUCAAAUUUAUCCTT against Lamtor2 | inactive: -1.55
87 | GCCUGCAUAUGAAACAGUATT against Mturn | inactive: 0.347
88 | GGAGAUGCAAGGAAAAGUUTT against Faap24 | inactive: 0.201

Look-ups from the list:
GGAAGUGCUUUGAAGAAGATT against Strip2 – z-score: inactive: 1.21
GGAGAUGAAAUAAAGUGGATT against Acsm1 – z-score: inactive: -0.573

Further entries.

Row | Sequence | z-score
89 | CGGACAGAUACAAUAGCUATT against Zc3h4 | inactive: -1.53
90 | GAACGGCUACAUCUGUUACTT against Bricd5 | inactive: 0.529
91 | GGAAAAGUUCCAUCUAGUATT against Pole | inactive: -0.28
92 | GGCACCAAGUUUGACACGCTT against Zap70 | inactive: 1.33
93 | GGAGAACAUCGUUUCCAGCTT against Nlgn1 | inactive: 0.0831
94 | CCCUUUCCUAUUUGUUAUGTT against Serpinb3d | inactive: 0.754
95 | GGACUUUUUCUAGAAACGATT against Fbxo16 | inactive: -1.17
96 | GGGCUUCCUAGUAUUCCACTT against Tuba4a | inactive: 1.55
97 | GGAUGUUAUUCAGUUUUCATT against BC051019 | active: 2.37
98 | GGAAUUUGUCAUUCAGGAATT against Rad1 | inactive: 0.209
99 | GCAAGUGGAGUUUAUUGAUTT against Dbndd2 | inactive: -0.0399
100 | GGAGGAGUUAAAUAUGAUCTT against Cnnm4 | inactive: 0.943
101 | CCUCCACUAUACGGUAAGUTT against Pla2g2c | active: -3.37
102 | GGCCAAUGCACUGUGUUACTT against Tinag | inactive: 1.25
103 | GGAUGUCCCACUGCUUUACTT against Gfod2 | inactive: 0.386
104 | GCCUUGUUGUGUUGGCUUATT against Olfr1111 | inactive: 0.549
105 | GGCACAAGGAACCUACGUUTT against Perp | inactive: -0.208
106 | GGUUAGCCAGCUGAAUCAATT against Cxxc4 | inactive: 1.89
107 | GGGAUGAAGUAGUUUUAAUTT against Ggnbp2 | inactive: -0.606
